Reference: PubChem BioAssay AID1487 (National Center for Advancing Translational Sciences (NCATS), 2009)
The list shows a part of the results. Shown are side measurements of this screen, not its main read-out; they come without a call. The list favours compounds with an active or inconclusive main result. Words in brackets tell the shape of the fitted curve; partial curves, single points and poor fits give uncertain potencies.

Assay: qHTS Assay for Modulators of Lamin A Splicing
Conditions: HeLa LMNA splicing GFP/RFP minigene ratio, 48 h
Outline: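 Read-out is the ratio of GFP to DsRed2 object intensity, acquired by 488 nm laser-scanning cytometry on HeLa lamin A-EGFP minigene reporter cells. Compound incubation 48 hrs at 37 °C in Opti-MEM with 2% FBS; DMSO 0.5% final.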

[1] = measured here: GFP splicing reporter channel
[2] = measured here: RFP viability control channel

Row | Structure (SMILES) | AC50 [1] | AC50 [2]
1 | CN1CCN(c2nc3cc(C(F)(F)F)ccc3n3cccc23)CC1 | 5.62 µM [falling, partial curve, poor fit] | 14.1 µM [falling, single point]
2 | O=C(COc1ccccc1)Nc1cccc(-c2nc3cc4ccccc4cc3[nH]2)c1 | 25.1 µM [falling, single point] | 35.5 µM [falling, single point]
3 | COc1cccc(N2CCN(CC(=O)c3c(C)[nH]c4ccccc34)CC2)c1 | – | 15.8 µM [rising, partial curve]
4 | CC1CCN(C(c2ccc(N(C)C)cc2)c2nnnn2Cc2ccc(F)cc2)CC1 (centres undefined) | 14.1 µM [rising, single point] | –
5 | COc1ccc(N(C(C)C(=O)N2CCC(Cc3ccccc3)CC2)S(C)(=O)=O)cc1 (centres undefined) | 5.01 µM [falling, full curve] | 5.62 µM [falling, full curve, poor fit]
6 | CN(C)c1ccc(-c2noc(C3CCN(S(=O)(=O)c4cccc(Cl)c4)CC3)n2)cc1 | – | 20 µM [rising, single point]
7 | COc1ccc(CN2C(=O)CCCc3ccccc32)cc1 | 0.0224 µM [rising, full curve] | –
8 | COc1ccccc1N(CC(=O)N(c1ccccc1)C(C)C)S(=O)(=O)c1cccs1 | 0.0398 µM [falling, full curve] | –
9 | CCS(=O)(=O)Nc1cc(OC)c(OC)cc1Cc1nccc2cc(OC)c(OC)cc12 | 0.282 µM [falling, full curve, poor fit] | –
10 | COc1cccc(Cn2c(=O)c(-c3ccc(F)cc3)nc3cnc(N4CCNCC4)nc32)c1 | 22.4 µM [falling, partial curve] | 25.1 µM [falling, partial curve]
11 | COC(=O)c1scc(-c2ccc(C)cc2)c1S(=O)(=O)N1CCN(c2cccc(Cl)c2)CC1 | – | 2.51 µM [rising, partial curve, poor fit]
12 | COc1ccc(-n2c(=O)c(-c3cn(C)c4ccccc34)nc3cnc(N4CCOCC4)nc32)cc1 | 14.1 µM [falling, single point] | 17.8 µM [falling, partial curve]
13 | COCCNCC(=O)N1CCCCCC1 | – | 0.126 µM [rising, full curve]
14 | CC(=O)/C(=C/c1ccc(N(C)C)cc1)C(=O)c1ccccc1 | – | 14.1 µM [rising, single point]
15 | Cc1sc(N(C(=O)CCc2ccccc2)c2ccc(C(=O)O)cc2)nc1-c1ccccc1 | – | 35.5 µM [rising, single point]
16 | Cc1c(C(=O)Nc2c(F)cccc2F)sc2ncn(Cc3ccccc3F)c(=O)c12 | 6.31 µM [falling, partial curve, poor fit] | –
17 | C=COCCNC(=S)Nc1ccccc1 | – | 17.8 µM [falling, single point]
18 | Cc1ccccc1OCC(=O)OCC(=O)Nc1ccc(N2CCOCC2)cc1 | 0.794 µM [falling, full curve, poor fit] | –
19 | CCc1ccc(C(=O)NC(C(=O)NCC2CCCO2)C(C)C)cc1 (centres undefined) | 10 µM [rising, partial curve, poor fit] | –
20 | COc1ccc(S(=O)(=O)N(CC(=O)Nc2ccc(Br)cc2)Cc2ccccc2)cc1 | 12.6 µM [falling, partial curve] | 8.91 µM [falling, full curve]
21 | Cc1nc2ccc(NC(=O)COc3ccccc3F)cc2s1 | 0.891 µM [rising, full curve, poor fit] | –
22 | NCC12CC3CC(C1)CC(c1ccc(Cl)cc1)(C3)C2 | 11.2 µM [falling, single point] | 25.1 µM [falling, single point]
23 | O=C(c1ccc(S(=O)(=O)c2ccc(F)cc2)c([N+](=O)[O-])c1)N1CCCCCC1 | – | 3.16 µM [falling, single point]
24 | CCN(CC)CCN(C(=O)CCOc1ccccc1)c1nc2ccc(F)cc2s1 | 0.112 µM [rising, partial curve] | –
25 | C[N+]1(CC(O)COCC2COc3ccccc3O2)CCOCC1 (centres undefined) | 0.01 µM [rising, full curve, poor fit] | –
26 | NC(=O)c1c(-c2ccc(Cl)cc2Cl)csc1NC(=O)Cc1ccccc1 | 6.31 µM [rising, full curve, poor fit] | 2.82 µM [rising, full curve]
27 | N#Cc1cc(C(=O)c2cc(Cl)ccc2O)cn(CC2CCCO2)c1=O (centres undefined) | 0.141 µM [rising, full curve, poor fit] | 35.5 µM [rising, single point]

Full records, quoted from the list. Values in the order: AC50 [1] | AC50 [2]
O=C(COc1ccccc1)Nc1cccc(-c2nc3cc4ccccc4cc3[nH]2)c1 in the list: 25.1 µM [falling, single point] | 35.5 µM [falling, single point]
NC(=O)c1c(-c2ccc(Cl)cc2Cl)csc1NC(=O)Cc1ccccc1 in the list: 6.31 µM [rising, full curve, poor fit] | 2.82 µM [rising, full curve]

Additional records:

Row | Structure (SMILES) | AC50 [1] | AC50 [2]
28 | Cc1cnc(C(=O)OCC(=O)Nc2ccc(C)c(S(=O)(=O)N3CCCCCC3)c2)cn1 | 5.62 µM [falling, partial curve, poor fit] | –
29 | Cc1cc([N+](=O)[O-])nn1CCCC(=O)Nc1ccc(Cl)cc1Cl | 0.501 µM [rising, full curve, poor fit] | 0.447 µM [rising, full curve, poor fit]
30 | O=C(c1ccc(Cl)cc1)c1nnc(-c2ccncc2)o1 | – | 22.4 µM [rising, partial curve, poor fit]
31 | CC(C)OC(=O)/C(=C\c1cccnc1)NC(=O)c1ccccc1 | 0.355 µM [falling, full curve, poor fit] | 5.62 µM [falling, partial curve, poor fit]
32 | COc1cc(-c2nn3c(Cc4ccccc4)nnc3s2)cc(OC)c1OC | – | 17.8 µM [rising, partial curve]
33 | COCCn1c(SCC(=O)NNC(=O)c2ccccc2)nc2ccccc2c1=O | – | 12.6 µM [rising, single point]
34 | COC(=O)c1sccc1NC(=S)Nc1cc(OC)ccc1OC | – | 6.31 µM [falling, single point]
35 | Cc1cc(=O)c(C(=O)O)cn1-c1ccc(C(C)C)cc1 | – | 20 µM [falling, partial curve]
36 | COc1ccc(/C(N)=N/OC(=O)Cc2ccc(OC)c(OC)c2)cc1 | 6.31 µM [rising, full curve] | 7.08 µM [rising, full curve]
37 | Fc1ccc(-c2nc(-c3cccs3)[nH]c2-c2ccc(F)cc2)cc1 | – | 14.1 µM [rising, partial curve]
38 | CN(c1ccccc1)S(=O)(=O)c1cccc(NC(=O)CSc2nncn2C)c1 | – | 0.0891 µM [rising, full curve]
39 | O=C(NCC(c1cccnc1)N1CCc2ccccc21)c1ccc(Cl)cc1 (centres undefined) | 10 µM [rising, partial curve, poor fit] | 5.01 µM [rising, partial curve]
40 | Cc1ccc(-n2ncc(C(=O)NCCN3CCC(Cc4ccccc4)CC3)c2C2CCN(C(=O)OC(C)(C)C)CC2)cc1 | 14.1 µM [falling, partial curve] | 14.1 µM [falling, partial curve]
41 | COc1ccc(NC2=C(Cl)C(=O)N(CCc3ccccc3)C2=O)c(OC)c1 | – | 17.8 µM [rising, single point]
42 | COc1cc(C(=O)Oc2cccc(Nc3ncnc4ccccc34)c2)cc(OC)c1OC | 3.55 µM [rising, full curve] | –
43 | Cc1ccc(NC(=O)COC(=O)c2csc3c2CCC(C)C3)cc1S(=O)(=O)N1CCCCC1 (centres undefined) | 11.2 µM [rising, partial curve] | 15.8 µM [rising, single point]
44 | COc1ccc(N(CC(=O)NCc2ccccc2OC)S(=O)(=O)c2ccccc2[N+](=O)[O-])c(OC)c1 | 10 µM [falling, partial curve, poor fit] | 5.62 µM [falling, partial curve, poor fit]
45 | CSc1ncc(Cl)c(C(=O)Nc2nnc(SC/C=C/c3ccccc3)s2)n1 | 12.6 µM [rising, single point] | 17.8 µM [rising, single point]
46 | CCC1=C(C)CN(C(=O)NCCc2ccc(S(=O)(=O)NC(=O)NC3CCC(C)CC3)cc2)C1=O (centres undefined) | 0.224 µM [falling, full curve, poor fit] | –
47 | CCOC(=O)c1c(-c2ccc(OC)cc2)csc1NC(=O)CSc1ccccc1 | – | 11.2 µM [rising, single point]
48 | O=C(Cc1ccc(-c2ccccc2)cc1)NCCS(=O)(=O)N1CCN(c2ccccc2F)CC1 | – | 12.6 µM [rising, partial curve]
49 | NS(=O)(=O)c1ccc(NC(=O)COC(=O)CCC2CCCC2)cc1 | 0.708 µM [rising, single point] | –
50 | CCOc1ccc2nc(NC3=NC(C)(C)C=C(C)N3)nc(C)c2c1 | – | 35.5 µM [rising, single point]
51 | CCCC(=O)N1CCN(c2nc(CC(C)C)c3c(c2C#N)CCC3)CC1 | 15.8 µM [rising, single point] | 20 µM [rising, single point]
52 | CCN(Cc1ccccc1)S(=O)(=O)c1ccc2c(c1)NC(=O)CC(=O)N2 | – | 1.41 µM [rising, partial curve, poor fit]
53 | O=C(Nc1ccccc1C(=O)N1CCCCC1)c1nsc2ccccc12 | 0.631 µM [rising, full curve, poor fit] | 0.794 µM [rising, full curve, poor fit]
54 | CCOC(=O)N1CCC(NC(=O)C2CCC(CNS(=O)(=O)c3ccc(OC)cc3)CC2)CC1 (centres undefined) | 6.31 µM [rising, single point] | 4.47 µM [rising, single point]
